# Assay results from the supplement of paper PMC8728848.
# Some of the results follow.
# B1: Aap brpt (Staphylococcus epidermidis) (protein)
# chain: VDGDPITSTEEIPFDKKREFDPNLAPGTEKVVQKGEPGTKTITTPTTKNPLTGEKVGEGEPTEKITKQPVDEIVHYGGEEIKTGHKDEFDPNAPKGSQTTQPGKPGVKNPDTGEVVTPPVDDVTKYGPVDGDPITSTEEIPFDKKREFDPNLAPGTEKVVQKGEPGTKTITTPTTKNPLTGEKVGEGEPTEKITKQPVDEIVHYGGEEIKPGHKDEFDPNAPKGSQEDVPGKPGVKNPDTGEVVTPPVDDVTKYGPVDGDSITSTEEIPFDKKREFDPNLAPGTEKVVQKGEPGTKTITTPTTKNPLTGEKVGEGEPTEKITKQPVDEIVHYGGEQIPQGHKDEFDPNAPVDSKTEVPGKPGVKNPDTGEVVTPPVDDVTKYGPVDGDSITSTEEIPFDKKREFDPNLAPGTEKVVQKGEPGTKTITTPTTKNPLTGEKVGEGKSTEKVTKQPVDEIVEYGPTK
# Tests used:
# Experiment in all cases: glycan array binding signal (z-score within array); higher = stronger binding
# Conditions in all cases: glycan notation: IUPAC condensed, linker removed
# [1] = target: Fuc(a1-2)[GalNAc(a1-3)]Gal(b1-3)GlcNAc(b1-6)GalNAc
# Procedure, shortened: (§1)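 Negative Z-scores can be read as non-binding. The Z-score is calculated within each array and then averaged across arrays of one protein sequence at different concentrations or buffers and across linkers. Arrays, 3228 in all, were curated from the Consortium for Functional Glycomics database and kept only where the protein sequence was available.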
# [2] = target: Fuc(a1-2)[GalNAc(a1-3)]Gal(b1-4)Glc
# Procedure, shortened: as §1
# [3] = target: Fuc(a1-2)[GalNAc(a1-3)]Gal(b1-4)GlcNAc
# Procedure, shortened: as §1
# [4] = target: Fuc(a1-2)[GalNAc(a1-3)]Gal(b1-4)GlcNAc(b1-2)Man
# Procedure, shortened: as §1
# [5] = target: Fuc(a1-2)[GalNAc(a1-3)]Gal(b1-4)GlcNAc(b1-2)Man(a1-3)[Fuc(a1-2)[GalNAc(a1-3)]Gal(b1-4)GlcNAc(b1-2)Man(a1-6)]Man(b1-4)GlcNAc(b1-4)GlcNAc
# Procedure, shortened: as §1
# [6] = target: Fuc(a1-2)[GalNAc(a1-3)]Gal(b1-4)GlcNAc(b1-2)Man(a1-3)[Fuc(a1-2)[GalNAc(a1-3)]Gal(b1-4)GlcNAc(b1-2)Man(a1-6)]Man(b1-4)GlcNAc(b1-4)[Fuc(a1-6)]GlcNAc
# Procedure, shortened: as §1
# [7] = target: Fuc(a1-2)[GalNAc(a1-3)]Gal(b1-4)GlcNAc(b1-3)Gal(b1-4)GlcNAc
# Procedure, shortened: as §1
# [8] = target: Fuc(a1-2)[GalNAc(a1-3)]Gal(b1-4)GlcNAc(b1-3)Gal(b1-4)GlcNAc(b1-3)Gal(b1-4)GlcNAc
# Procedure, shortened: as §1
# [9] = target: Fuc(a1-2)[GalNAc(a1-3)]Gal(b1-4)GlcNAc(b1-3)GalNAc
# Procedure, shortened: as §1
# [10] = target: Fuc(a1-2)[GalNAc(a1-3)]Gal(b1-4)GlcNAc(b1-3)[Fuc(a1-2)[GalNAc(a1-3)]Gal(b1-4)GlcNAc(b1-6)]GalNAc
# Procedure, shortened: as §1
# [11] = target: Fuc(a1-2)[GalNAc(a1-3)]Gal(b1-4)GlcNAc(b1-6)GalNAc
# Procedure, shortened: as §1
# [12] = target: Fuc(a1-2)[GalNAc(a1-3)]Gal(b1-4)[Fuc(a1-3)]GlcNAc
# Procedure, shortened: as §1
# [13] = target: Fuc(a1-2)[GalNAc(a1-3)]Gal(b1-4)[Fuc(a1-3)]GlcNAc(b1-3)GalNAc
# Procedure, shortened: as §1
# [14] = target: Fuc(a1-2)[GalNAc(a1-4)]Gal(b1-4)GlcNAc
# Procedure, shortened: as §1
# [15] = target: Fuc(a1-2)[GalNAc(b1-3)]Gal
# Procedure, shortened: as §1
# [16] = target: Fuc(a1-3)GlcNAc
# Procedure, shortened: as §1
# [17] = target: Fuc(a1-3)[Gal(b1-4)]Glc6S
# Procedure, shortened: as §1
# [18] = target: Fuc(a1-3)[Gal(b1-4)]GlcNAc
# Procedure, shortened: as §1
# [19] = target: Fuc(a1-3)[Gal(b1-4)]GlcNAc(b1-2)Man
# Procedure, shortened: as §1
# [20] = target: Fuc(a1-3)[Gal(b1-4)]GlcNAc(b1-2)Man(a1-3)[Fuc(a1-3)[Gal(b1-4)]GlcNAc(b1-2)Man(a1-6)]Man(b1-4)GlcNAc(b1-4)GlcNAc
# Procedure, shortened: as §1
# [21] = target: Fuc(a1-3)[Gal(b1-4)]GlcNAc(b1-2)Man(a1-3)[Fuc(a1-3)[Gal(b1-4)]GlcNAc(b1-2)Man(a1-6)]Man(b1-4)GlcNAc(b1-4)[Fuc(a1-6)]GlcNAc
# Procedure, shortened: as §1
# [22] = target: Fuc(a1-3)[Gal(b1-4)]GlcNAc(b1-3)Gal(b1-3)[Fuc(a1-4)]GlcNAc
# Procedure, shortened: as §1
# [23] = target: Fuc(a1-3)[Gal(b1-4)]GlcNAc(b1-3)Gal(b1-4)[Fuc(a1-3)]GlcNAc
# Procedure, shortened: as §1
# [24] = target: Fuc(a1-3)[Gal(b1-4)]GlcNAc(b1-3)Gal(b1-4)[Fuc(a1-3)]GlcNAc(b1-3)Gal(b1-4)[Fuc(a1-3)]GlcNAc
# Procedure, shortened: as §1
# [25] = target: Fuc(a1-3)[Gal(b1-4)]GlcNAc(b1-3)GalNAc
# Procedure, shortened: as §1
# [26] = target: Fuc(a1-3)[Gal(b1-4)]GlcNAc(b1-6)GalNAc
# Procedure, shortened: as §1
# [27] = target: Fuc(a1-3)[Gal(b1-4)]GlcNAc(b1-6)[Gal(b1-3)GlcNAc(b1-3)]Gal(b1-4)Glc
# Procedure, shortened: as §1
# [28] = target: Fuc(a1-3)[Gal(b1-4)]GlcNAc6S
# Procedure, shortened: as §1
# [29] = target: Fuc(a1-3)[Gal3S(b1-4)]Glc
# Procedure, shortened: as §1
# [30] = target: Fuc(a1-3)[Gal3S(b1-4)]GlcNAc
# Procedure, shortened: as §1
# [31] = target: Fuc(a1-3)[Gal3S(b1-4)]GlcNAc6S
# Procedure, shortened: as §1
# [32] = target: Fuc(a1-3)[GalNAc(b1-4)]GlcNAc
# Procedure, shortened: as §1
# [33] = target: Fuc(a1-3)[GalNAc(b1-4)]GlcNAc6S
# Procedure, shortened: as §1
# [34] = target: Fuc(a1-4)GlcNAc
# Procedure, shortened: as §1
# [35] = target: Fuc(b1-3)GlcNAc
# Procedure, shortened: as §1
# [36] = target: Gal(a1-2)Gal
# Procedure, shortened: as §1
# [37] = target: Gal(a1-3)Gal
# Procedure, shortened: as §1
binder,measurement,setting,value
B1,glycan array binding signal (z-score),[1],0.06
same,glycan array binding signal (z-score),[2],0.427
same,glycan array binding signal (z-score),[3],-0.292
same,glycan array binding signal (z-score),[4],-1.22
same,glycan array binding signal (z-score),[5],-0.89
same,glycan array binding signal (z-score),[6],0.323
same,glycan array binding signal (z-score),[7],-0.155
same,glycan array binding signal (z-score),[8],-0.361
same,glycan array binding signal (z-score),[9],-2.27
same,glycan array binding signal (z-score),[10],0.032
same,glycan array binding signal (z-score),[11],1.65
same,glycan array binding signal (z-score),[12],0.27
same,glycan array binding signal (z-score),[13],0.861
same,glycan array binding signal (z-score),[14],0.881
same,glycan array binding signal (z-score),[15],-1.97
same,glycan array binding signal (z-score),[16],-0.922
same,glycan array binding signal (z-score),[17],0.738
same,glycan array binding signal (z-score),[18],-0.26
same,glycan array binding signal (z-score),[19],-0.698
same,glycan array binding signal (z-score),[20],-1.23
same,glycan array binding signal (z-score),[21],0.06
same,glycan array binding signal (z-score),[22],0.103
same,glycan array binding signal (z-score),[23],-0.164
same,glycan array binding signal (z-score),[24],-1.34
same,glycan array binding signal (z-score),[25],0.052
same,glycan array binding signal (z-score),[26],0.4
same,glycan array binding signal (z-score),[27],0.86
same,glycan array binding signal (z-score),[28],0.059
same,glycan array binding signal (z-score),[29],0.077
same,glycan array binding signal (z-score),[30],0.583
same,glycan array binding signal (z-score),[31],0.794
same,glycan array binding signal (z-score),[32],-0.763
same,glycan array binding signal (z-score),[33],-0.612
same,glycan array binding signal (z-score),[34],0.26
same,glycan array binding signal (z-score),[35],-0.794
same,glycan array binding signal (z-score),[36],-1.61
same,glycan array binding signal (z-score),[37],2.41

# Part of the list above, with tabs.
binder	measurement	setting	value
B1	glycan array binding signal (z-score)	[4]	-1.22
same	glycan array binding signal (z-score)	[24]	-1.34
